The chains are these.
B1: AAA domain-containing protein (protein, UniProt C4M3C0 1-422)
chain: MEGFTEEEMITLNEADVLSLSNEEIKQQIKQMERQEGVIRHEHERIRQELAVINKQNKESKEKIEMFAKLPFLISNVVEILDLPPEESDDGSGLDNKGNVGTKGVVINTSMRSNVFLPVSGLVNVKDLKPGDLVGVNKDTYLILEKLPQQYDGRVKSMEVIERPTETYNDVGGLDKEMKEMIEAIVLPMTQKEKFEKLGIQTPKGVLLYGPPGTGKTLMARACAAQTKSTFLKLAAPQLVSSSIGDGSRIIREMFELAKSKAPAIIFIDEIDAIGTKRTESEHSGDREIQRTMLELLNQLDGFSKTDDVRVIAATNRIDVLDPALLRSGRFDRKIEFPTPNEEARVHILQIHSKKLKCSDDINFEELARSTQDFNGAQLKAVCVEAGMIALRREAIEIRHEDFQQGILEVQSKKKKSLTYFA
B2: Pyruvate:ferredoxin oxidoreductase (protein, UniProt C4LTX6 1-1162)
chain: MQSVDGNQAAAYVSYALSDVSFIFPITPSSPMAENADVWSSQGRKNVFGQVVDVYEMESEAGASGAVHGGCAAGSLVSTYTCSQGLMLMIPNMIKIAGEHLPCVFHVTARALAGQALSIFGDHSDVMACRSTGFCLLSSHNVQQCHDLAIVAHLATLEASLPFMHFFDGFRTSHEIQKIHQLTYDQIKSLVDMKYVDRAHKRGLNPIHPSQRGTSQGPDVFFQAVEKSNADYLKVPEIVQKYMDKVGELTGRHYKIFEYYGAADAERVVVVMGAAVPVLEECVDYLMKSGEKVGVLSVHLYRPWSAKHFLEQLPKTVTKISVLDRTKEAGSFGEPLYLDVATTLLDAGKHIKCVGGRYGLGSKEFTPAMAKAVFDNLKNEEPKNHFTVGIEDDVTHMSLPIGENFNPIPEGTTQCMFWGLGSDGTVGANHDAIRIIGQNTDMYVQGYFSYDAHKSGGVTVSHLRFGQKPIKSQYLIQNADYTACHFPNYVKKYKLLDAAKPNSVFVLNCPWTGAELEAQLPGSLKRVIAEKQIKFYTIDAIKIGQEVKLGRRINMIMQTVFFKLANVIPFEKAIVLLKEAVQKTYGAKGPAIVKMNHDAIDKALDGLVEVKVPAEWANAPLETVTKIEAPEFVTDVLMPQLAMKGNELPVSKFAADGFMPMGTTKYEKRGIATKIPTWEASKCVQCNMCSLYCPHAAIRCFYLTPEESAKAPAEFVQIDGKAQQAGYKFRIQVSAMDCTGCEVCTTACPVKCLSMTPFEQVSEVESKNWEFAMTLSPKNSLSDRSNIKTTMIHQPYLEFSGACEGCNETALVKLITQLYGERTIIANATGCSSIWGATWGTNPYTVDGEGRGPAWGNSLFEDNAEYGFGMFKANEQRRLYLEQICKEAIAEGKLSNELKTLLEEWIAKKEDANESEKIYAAVKPLLAAEKDKSEVLGLIEQNSDMFVKISHWIVGGDGWAYDIGYNGVDHVLASGHNVNILVLDTEMYSNTGGQKSKATNLGAVVKFASSGCKRPKKDLGAIAMAYGDVYVASIALGANPAQAFKAFKEAESYNGVSLIIAYCPCKEQGVPLQKSIEEAKMAVNSGYWSLYRYDPRLVEQGKPGLQLDCSEVKGDLEAFLARENRFALLGRKDKETADKLHAQLKANIDKKLAHLKVVSKQA
B3: EF-hand calcium-binding domain containing protein (protein, UniProt C4MBE2 1-227)
chain: MQFGYPPMQPPVANFCLWNLQPIQGSWMGAACIYQMPPSVRNTWWFPLLNTIPLDQYTRIYQWFMGVDRDRSGTLEINELMMGQFPGGIRLSPQTALRMMRIFDTDFNGHISFYEFMAMYKFMELAYNLFVMNDRNRSGTLEPHEILPALQQLGFYINQRTSLLLHRLFARGMAFCDLNCWIAICAFAAQTRSAYQMIFMNPYYGPMKPFNPMEFGKFLDVVTSLLE
B4: Galactokinase (protein, UniProt C4LYJ7 1-389)
chain: MVSLEDIKSFHAKTYCTEPEHVGFAPGRVNIIGEHTDYNDGYVLPVAIKQGTYVSVSTKPSTVTKMNFISSIDNKLVSIERQSKEKILEKYKGKWFMYVYGVIDKLLTKIQSEPKEYSICVMGDVPLGSGLSSSASIEVATGITFLKVLNIEMTGIELGLLAVDVEHEYTGVMCGIMDQFASRLCKKNTALLLDCKTHQTINEPVVLGDCLIMITNSNAPHKLESSQYNERVKQCQEAVRQLNEHYHKNEKFLRGFTVDEVQILTGIIGNRAKHVVNENDRVIKAIAAMKVGNVEELGKLMTESHMSLRNLFEVSSEELDYLVDNALKINGVFGSRLTGAGFGGCTVTLLKPSAVDEYKKMLEVYKEKFNLHPFCFILNQPEDGAHLIF
B5: Long-chain-fatty-acid--CoA ligase (protein, UniProt C4M7S1 1-658)
chain: MKKQSYDSTFTKKEGNKFYFLNQTEHWSAGEKDDIEYMTQHTTYEVIKRRCEKNPENDFFGYRKREGKKYIGEYIWLKNKEVLEMTDSLASGIMNKYHLKKGDSCGIISGNRYEWYLTQFALQRHGIIPVPLYTTLGKEAIDYIISTLSITLVFCTFSDTVAEMCERNPKITLVCFDTFEDIMNHINPSISYVTFDRLIKEGKSNLIEPQLPTMDDTFSIIFTSGTSGIPKGAVHSFNSASYGSCTINSAELFKDSPMKEQTYFSYLPSAHVLDQEVTHGFIYGGGRIGFISGGIPTLIEDLSKCQPTFFIAVPRVLQKIYDKFNETYNQLGYFSQTLFNIGYYYKLNAVKNKSWNYINWDNIVFYKIHQVFGGKLKYILNGGAPLTEELYEWLRVCSGAIILQGYGLTETFGGICCSLPYMTDLNILNVGSCGPNVEIRLVSVPEMNYTIDDEYPSGEIEIRSKQNFICYYKNEEATKAAINDDGFFATGDIGKVCPDGSLAIIDRKKNLFKLAQGEYIAVEPLENKYCAMPLISQCFIYGESSDVFITAIIVLDFDELKRIASSITTESEKDSLLNIHYLNKIDIKKKILQIIQNYIKTQHVPGYEIIKNVYFETEHFSTENDLMTPSFKLKRPQLKRKYLTILKQLRTEIQNNLI
B6: PNP_UDP_1 domain-containing protein (protein, UniProt C4M2Y7 1-320)
chain: MSRLTEATLPANGNTIYHLSITAEDLADNIILVGDPERVPKASKLLFDESKPIFRRDHRGLTTMTGFTPKGLRISIVTHGMGTGSAEIIINEILALKCIDVKTRTPKAAPTHPVNIIRVGTSGAISKNTPIGTAIVTKYTIGLDNTGLFYDVKQVNKEALELEKEVIEKIDKAIPEGHRFKGKIRPYVSVPNSLVVEALEKVAKEQNVPYKVGITASAAGFFVCQGRFIFKELPTTISSLEDVLMNVQTKDLMVENFEMEMSCITQITQGFKWVRSGGICEIVDNRQLKTFTSADDVNVDKILKVAADALAILDTIPMEQ
B7: Glutamine--tRNA ligase (protein, UniProt C4M1P6 1-753)
chain: MAGAAEQFELIGIAKQKAEETLKNAELTKTLLDIIKEAGCEKGCEKAIGQLLYQLATKLNKGKESIRPQVIAWIVSKKVTNINMDALMTYINKHQELDIPTIEKECGVGVVVTREQIIEGVKQLLSGKMEELKKNRYTMEGQLIREAKDSIKWADGKVLNEELMKQLKEILGEKTKDDIKKKAQKKSGEPNKKEEVKNLPKQKNVDSGVKLSNPADNIQKTPEILAEHLKRTGGIYVTRFPPEPNGYLHIGHAKSMYLNFGYAEKTGGKCYMRFDDTNPEKETHEFINTIEETVKWLGHTPCAVTYSSQYFDRIYDCAIELIKRGKAYVCHQTPDQIAASRENKQPSPWRDRSVEENLKHFKWMCQGRYGEGEATLRMKMDINSPNPCMWDLVAYRIKFFPHPVTGDRLCCYPSYDFVHCLVDSFEDITHSMCTLEFLPRRESYFWLLDALDMYKPVVWEFNRLNITYTVMSKRKLHALVDKGYVRGWDDPRMPTIMGFKRKGYSADAINNFCRTVGVTTNTTVYIDYEVLEQHCRDDMEVKCKRAMCVPDPVKVILTNVPDDYCIEVVRPNHPMNDKMGTNTVHLRKVLYIDRSDWRDEDKKGYWGLAPNKVVGLRYAGNIICHKFDKDAEGKITCLYCTFDADKKEKPKGHIQWVSSGVNGAEPAKAELRYYDTLFTDPKPESPDWEKLINPKSLTIVNGYVDETLEHVKPLDCFQFERVGFFCCDSDSKEGALVFNRTVGLKESKEKKQI
B8: Tubulin beta chain (protein, UniProt C4LUJ0 1-459)
chain: MREIICLQIGQCGNQVGEKFWDIIGQEHGLSPDGIFNGNKLQQQRLNVYFSESSTKRYVPRSINVDLEPGTLDTIKSGKMGHFFKPDSFIFGHGGAGNNWAKGHYTEGTEICETIMESVRKEAEACECLQGFQVTHSLGGGTGSGLGTLLLSKLKDEFFEKVISTFSVVPSPTVSETVVEPYNCTLSVHKLLESSGVTFCFDNEALFKIASDIMKEPKPSYESLNSLISSVMSGITCSLRFPGQLNQDLKKLTVNMIPYPRLHFFSSSIAPVSSALSMQYESLSVQEIIQQLFDRKNMMVDLDPASGKYLTASCIMRGKVSTHDVEEQLYKIREKNPDAFVPWIPNNMQLAVCDIPPKGLNLSGTFIGNSTSIMDLFQRVNSQFLSMFKRKAFLHLYTEEGMEESEFSEATADLIDLVNEYRQYDKASPEVDDEQPDQEGELLTEVHEDSLAHSPTNQV
B9: Rho family GTPase (EHI_070730) (protein, UniProt Q24816 1-194)
chain: MSEKPTSIKLVVVGDGAVGKTCLLISYSIRKFPEDYIPTVFDNYVVSLTAGTRQIQLALWDTAGQEEYDQLRPLSYSSASIFLICFSVTSSVSYDNVITKWHPEVIHFAPKVPIILVGTKLDTRNDPAIVKRLTEQGMTVINTAKGEELKNRIKAVKYIECSAKTSENLKTVFDEAVKTVLMNKPQQRSKCALL
B10: Inositol-3-phosphate synthase (protein, UniProt C4M5S9 1-508)
chain: MSYQFHSTKSHQTESSIEADFHYETTHVEVSKEGVICTPIAKDYKFKVDKKIPKMGLMMIGWGGNNGTTVTAGILANKHHLCWTDRRGVHEPNYYGSYTQSATMRLGATSEGEEIYAPYKDILPFVCPDNIVVGGWDISKVNMADALKRAQVVDYDLQRQLYPYMKELVPLPSIYYKSYIAANQDDRADNVIPGTKQNHLDTVRQNIRDFKAQHGLDKIVVLWTATTERYVEIKEGLNDTAENLLKSIAAGEEEVSPSTIFATAAILEGCPFVNGSPQNTLVPGVIDLANKHGGAVMGDDFKTGQTKIKSVLADFLVSSGLKLQSIVSYNHLGNNDGKNLSSPSQFRSKEISKSNVVSDVVKSNNIMYKEGEHPDHVIVIKYVPYVGDSKRAMDEYTSEIFLGGHNTIALHNTCEDSLLAAPLMIDLAVLMEFMTRVTYSIDGKEFKNFNSVMSMISYLLKAPVVPKGSPVINALFKQRECLDNFFRALLGLPCDNHLLLEGKTEHFF
B11: Seryl-tRNA synthetase (protein, UniProt C4LV24 1-453)
chain: MGLDINLFRNQPDVIKESQKKRGASVEIVDEILALDNEWKKEGFTLDQTRKELGKIQKELGMLHKNKENPPTKEVLAEYDVKKKACESKIAELEKSVSELKVKIDAKIKSVGNIVPDSVPVEMDEKFNKIEVTYGECTPKLYHHHELIHMIGGADTERAVKVAGHRGYYLKGWGFKLNQALINYGTNFLEQRGFTPIQTPYFMRRELMAKTAQLSDFDETLYHVGTGKDVELDDQKYLIATSEQPLTALHAGEWILPKQLPIRYMGFSTNFRKEAGAHGKDTWGIFRVHQFEKIEQFCMTLPDKSWEMHEEMIKNSRDFFESLKIPYRVVNIVSGALNNAAAKKYDLEGYFPGFNEYRELVSCSNCTDYQSRELEVRLQTDKKDKTKSYVHMLNSTLCATERALCCILENYQCEDGIIVPEVLRPYVGGVEKIPFIAPKPVWAKEEKKSTKKN

Results are given in words; binding and its absence hold for the method and conditions named. Binding seen in cells or lysates may run through a third protein. These calls come from enrichment with a bait or labelling near it, and not all partners need be listed.

The test concerns the target EhVps23 (E. histolytica (endogenous in HM1:IMSS trophozoites)). The test is described as follows: affinity purification with mass spectrometry; immunoprecipitation with α-EhVps23 antibody and protein G-agarose from trophozoite lysates (10 mM Tris-HCl, 50 mM NaCl, protease inhibitors, freeze-thawing; pre-cleared with Protein-G, 2 h at 4°C); precipitate separated by gel electrophoresis, LC-ESI-HDMSE.
On to B1, for which the binding entry is given as “binds”.

As to B2, the binding entry is “binds”.

Turning to B3, the binding entry is “binds”.

On to B4, for which the binding entry is recorded as “binds”.

Take B5: the binding entry is reported as “binds”.

Turning to B6, the binding entry is “binds”.

On to B7, for which the binding result is “binds”.

Consider B8, for which the binding result is recorded as “binds”.

Turning to B9, the binding entry was “binds”.

As for B10, the binding entry is on record as “binds”.

Regarding B11, the binding entry is “binds”.

The record behind these values is article PMC8964110.
